Results reported in paper PMC9744749.

Chains of the proteins cited; added tags and fusions are not shown.
UniProt Q8BKJ9: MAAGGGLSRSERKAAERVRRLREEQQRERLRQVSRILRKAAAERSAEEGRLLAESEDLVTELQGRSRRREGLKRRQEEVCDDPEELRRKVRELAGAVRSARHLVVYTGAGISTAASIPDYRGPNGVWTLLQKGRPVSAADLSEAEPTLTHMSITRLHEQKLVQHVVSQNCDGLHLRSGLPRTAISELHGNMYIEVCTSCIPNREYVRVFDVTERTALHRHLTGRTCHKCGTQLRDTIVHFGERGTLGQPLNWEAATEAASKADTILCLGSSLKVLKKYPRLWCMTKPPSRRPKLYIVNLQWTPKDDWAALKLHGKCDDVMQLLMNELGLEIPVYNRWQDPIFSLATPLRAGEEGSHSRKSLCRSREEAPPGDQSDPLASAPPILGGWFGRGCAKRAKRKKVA
UniProt Q5SF07: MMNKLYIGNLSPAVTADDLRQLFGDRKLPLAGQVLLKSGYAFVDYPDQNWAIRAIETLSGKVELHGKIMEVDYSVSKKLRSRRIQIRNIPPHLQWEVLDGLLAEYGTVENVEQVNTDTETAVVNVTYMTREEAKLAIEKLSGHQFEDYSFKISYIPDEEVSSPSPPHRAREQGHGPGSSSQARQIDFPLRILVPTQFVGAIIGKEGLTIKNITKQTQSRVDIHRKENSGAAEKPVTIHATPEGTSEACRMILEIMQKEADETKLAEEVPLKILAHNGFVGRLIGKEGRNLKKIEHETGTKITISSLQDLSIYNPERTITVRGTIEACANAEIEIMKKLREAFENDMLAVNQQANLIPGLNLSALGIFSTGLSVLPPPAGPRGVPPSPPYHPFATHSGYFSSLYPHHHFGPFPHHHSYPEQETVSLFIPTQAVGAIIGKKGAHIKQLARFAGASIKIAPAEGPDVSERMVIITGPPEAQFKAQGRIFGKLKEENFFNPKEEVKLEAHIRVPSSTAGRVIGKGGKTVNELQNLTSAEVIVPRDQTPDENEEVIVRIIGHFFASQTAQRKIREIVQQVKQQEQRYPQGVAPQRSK

Target: Halo-SIRT7 (UniProt Q8BKJ9)
Assay: affinity purification with mass spectrometry; Halo-SIRT7 immobilised on HaloLink Resin, incubated with extract of cultured brown adipocytes in pull-down buffer (10 mM Tris-HCl pH 7.4, 150 mM NaCl, 0.5% NP-40, 10 mM nicotinamide, 1 uM TSA) at 4 °C overnight; bound proteins resolved by SDS-PAGE, silver staining, LC-MS/MS; performed one time; only the target purified

binding: binds
Substance: insulin-like growth factor 2 mRNA-binding protein 2 (endogenous, brown adipocytes) (from UniProt Q5SF07 1-592)

These are yes or no findings as the source states them, for the method shown. In cells and extracts the contact can be indirect. A yes stands for co-enrichment or nearness to the bait. Other partners may have been found.
